{
  "sequences": {"note": "The chains behind the UniProt entries cited, without tags or fusion partners.", "UniProt P35222": "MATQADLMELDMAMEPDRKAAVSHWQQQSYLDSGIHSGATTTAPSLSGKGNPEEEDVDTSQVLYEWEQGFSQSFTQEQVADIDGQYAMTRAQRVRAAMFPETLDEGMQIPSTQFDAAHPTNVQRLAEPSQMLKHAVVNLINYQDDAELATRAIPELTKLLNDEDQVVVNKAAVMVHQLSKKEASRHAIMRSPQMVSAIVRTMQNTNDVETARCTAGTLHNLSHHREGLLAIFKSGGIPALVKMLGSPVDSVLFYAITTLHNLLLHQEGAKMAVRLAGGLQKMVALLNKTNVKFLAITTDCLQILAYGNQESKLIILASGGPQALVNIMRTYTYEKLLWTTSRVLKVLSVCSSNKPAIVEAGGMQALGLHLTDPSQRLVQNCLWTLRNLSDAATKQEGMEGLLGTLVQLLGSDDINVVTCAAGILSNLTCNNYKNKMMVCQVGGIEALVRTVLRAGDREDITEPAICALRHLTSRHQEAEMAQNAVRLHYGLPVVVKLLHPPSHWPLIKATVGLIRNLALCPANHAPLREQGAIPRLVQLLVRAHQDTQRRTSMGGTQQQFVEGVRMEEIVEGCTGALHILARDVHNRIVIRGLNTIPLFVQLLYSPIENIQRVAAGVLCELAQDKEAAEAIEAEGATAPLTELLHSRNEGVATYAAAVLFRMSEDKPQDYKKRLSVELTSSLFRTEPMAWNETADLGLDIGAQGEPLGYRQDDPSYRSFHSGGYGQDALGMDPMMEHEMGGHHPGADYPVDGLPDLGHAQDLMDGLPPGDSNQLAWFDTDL", "UniProt Q12778": "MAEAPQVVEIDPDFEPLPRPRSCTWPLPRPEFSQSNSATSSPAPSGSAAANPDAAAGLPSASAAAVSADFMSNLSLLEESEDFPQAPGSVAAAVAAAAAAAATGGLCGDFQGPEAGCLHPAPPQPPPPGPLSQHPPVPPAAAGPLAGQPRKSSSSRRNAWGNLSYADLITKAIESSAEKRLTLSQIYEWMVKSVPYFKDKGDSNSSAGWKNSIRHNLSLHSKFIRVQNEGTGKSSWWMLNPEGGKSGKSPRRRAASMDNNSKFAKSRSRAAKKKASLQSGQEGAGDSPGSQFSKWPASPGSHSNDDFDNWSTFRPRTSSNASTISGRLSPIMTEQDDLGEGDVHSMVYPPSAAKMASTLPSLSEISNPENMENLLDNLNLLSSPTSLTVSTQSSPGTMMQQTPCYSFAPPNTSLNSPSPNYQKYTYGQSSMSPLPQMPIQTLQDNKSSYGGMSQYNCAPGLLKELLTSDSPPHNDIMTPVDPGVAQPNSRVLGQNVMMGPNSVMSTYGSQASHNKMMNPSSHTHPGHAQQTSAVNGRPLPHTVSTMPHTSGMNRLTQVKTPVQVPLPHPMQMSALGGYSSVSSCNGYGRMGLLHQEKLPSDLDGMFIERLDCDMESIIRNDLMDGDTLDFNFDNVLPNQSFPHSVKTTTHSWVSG"},
  "source": "paper PMC7757047",
  "biological_target": "β-catenin (human (endogenous in human keratinocytes)) (UniProt P35222)",
  "experiment": "co-IP; immunoprecipitation from human keratinocytes after interference of E-cadherin expression (siEcad); which protein was precipitated is not told; asked whether the two interact in the nucleus",
  "note": "Results are given in words; binding and its absence hold for the method and conditions named. Binding seen in cells or lysates may run through a third protein. Some entries that bind do so weakly or less than the wild type.",
  "data": [
    {"substance": "forkhead box O1 (from UniProt Q12778 1-655)", "values": [
      {"measurement": "binding", "value": "binds"}
    ]}
  ]
}
